In PubChem BioAssay AID262 (DTP/NCI, 2004):
The list is a part of this screen's results and no random one: it is rich in T/C values a quarter to a half above the control, in often repeated tests (any T/C) and in doses without a T/C. Further doses and runs are listed elsewhere. T/C: endpoint of the treated group in % of that of the vehicle group. Schedules are NCI's codes, read here as Q, the interval in days (D) or hours (H), X, the number of doses. Some T/C values carry the count of animals alive at the toxicity check (mostly the fifth day); where none is given, no animal had died by that day. Some doses have a count of surviving animals in place of a T/C: the source files T/C as zero there, which appears to mark a toxic dose or a test without result, not a measured value. Survivors were counted at the toxicity check, usually on the fifth day, unless a day is given; later deaths do not show. Some doses were run more than once; their values stand side by side, smallest first.

Test system: LX-1 lung xenograft sc, nude mice, tumor weight
Assay: NCI In Vivo Anticancer Drug Screen. Data for tumor model Human Lung LX-1 Xenograft (subcutaneous) in NU/NU Swiss (nude) mice
Details: T/C endpoint: optimum tumor weight change, schedule: Q04DX003 (ip), higher T/C = larger tumour
Method: The antitumor activity of compounds was measured in mice bearing transplantable tumors. Survival or tumor size were measured and the results are expressed as the measurement made in the treated group (T) divided by the measurement made in the vehicle treated control group (C). The tumor model used in this assay is Human Lung LX-1 Xenograft (subcutaneous) in NU/NU Swiss (nude) mice

[1] = dose: 200.0 mg/kg/injection, vehicle: Klucel (hydroxypropylcellulose) (HPC)
[2] = dose: 32.0 mg/kg/injection, vehicle: saline
[3] = dose: 64.0 mg/kg/injection, vehicle: saline
[4] = dose: 20.0 mg/kg/injection, vehicle: Klucel (hydroxypropylcellulose) (HPC)
[5] = dose: 40.0 mg/kg/injection, vehicle: Klucel (hydroxypropylcellulose) (HPC)
[6] = dose: 400.0 mg/kg/injection, vehicle: Klucel (hydroxypropylcellulose) (HPC)
[7] = dose: 800.0 mg/kg/injection, vehicle: saline with Tween-80

CN1CCN(CCCN2c3ccccc3Sc3ccc(C(F)(F)F)cc32)CC1
survivor count (dose: 50.0 mg/kg/injection, vehicle: saline): 2 of 5 on day 37

COc1cc2c[n+](C)c3c4cc5c(cc4ccc3c2cc1OC)OCO5
survivor count (dose: 160.0 mg/kg/injection, vehicle: saline with Tween-80): 0 of 5 on day 35

CN(C)N=Nc1ccccc1
survivor count (dose: 100.0 mg/kg/injection, vehicle: Klucel (hydroxypropylcellulose) (HPC)): 0 of 5 on day 36 and 1 of 5 on day 36 | survivor count [1]: 0 of 5 on day 36

CC[C@](O)(C(=O)O)c1cc2n(c(=O)c1CO)Cc1cc3ccccc3nc1-2
survivor count (dose: 2.0 mg/kg/injection, vehicle: saline): 2 of 5 on day 36 | survivor count (dose: 16.0 mg/kg/injection, vehicle: saline): 1 of 5 on day 36 | survivor count [2]: 0 of 5 on day 36 | survivor count [3]: 0 of 5 on day 36 | survivor count (dose: 128.0 mg/kg/injection, vehicle: saline): 0 of 5 on day 36

CO[C@@]12[C@H](COC(N)=O)C3=C(C(=O)C(C)=C(N)C3=O)N1C[C@@H]1N[C@@H]12
T/C (dose: 0.75 mg/kg/injection, vehicle: saline, evaluated on day 33): 130 % of control

CCC[CH2][Sn]1([CH2]CCC)[O]C2C(CO)OC(n3ccc(N)nc3=O)C2[O]1 (stereo not given)
T/C (dose: 1.56 mg/kg/injection, vehicle: Klucel (hydroxypropylcellulose) (HPC), evaluated on day 34): 145 % of control [4 of 5 alive on day 36] | survivor count (dose: 6.25 mg/kg/injection, vehicle: Klucel (hydroxypropylcellulose) (HPC)): 3 of 5 on day 35 | survivor count (dose: 25.0 mg/kg/injection, vehicle: Klucel (hydroxypropylcellulose) (HPC)): 1 of 5 on day 35

NC(Cc1ccc(N(CCCl)CCCl)cc1)C(=O)O (stereo not given)
survivor count (dose: 10.0 mg/kg/injection, vehicle: Klucel (hydroxypropylcellulose) (HPC)): 2 of 5 on day 36 | survivor count [4]: 1 of 5 on day 36

COc1cccc2c1C(=O)c1c(O)c3c(c(O)c1C2=O)C[C@@](O)(C(=O)CO)C[C@@H]3OC1CC(N)C(OC)C(C)O1 (stereo not given in full)
survivor count (dose: 3.13 mg/kg/injection, vehicle: saline): 0 of 5 on day 35

CCOC(=O)C1C2OC(=O)C(C(=O)C2CN(CCCl)CCCl)C1C1CC=C(CC2=CCC(C3C4C(=O)OC(C(CN(CCCl)CCCl)C4=O)C3C(=O)OCC)CC2)CC1 (stereo not given)
survivor count [1]: 0 of 5 on day 42

CC(=O)OCC1OC(n2cc(CBr)nn2)C(OC(C)=O)C(OC(C)=O)C1OC(C)=O (stereo not given)
survivor count (dose: 50.0 mg/kg/injection, vehicle: saline with Tween-80): 3 of 5 on day 35 | survivor count (dose: 100.0 mg/kg/injection, vehicle: saline with Tween-80): 3 of 5 on day 36 | survivor count (dose: 200.0 mg/kg/injection, vehicle: saline with Tween-80): 1 of 5 on day 36

CCCCNCCCNCCCNC(=O)c1csc(-c2csc(CCNC(=O)C(NC(=O)C(C)C(O)C(C)NC(=O)C(NC(=O)c3nc(C(CC(N)=O)NCC(N)C(N)=O)nc(N)c3C)C(OC3OC(CO)C(O)C(O)C3OC3OC(CO)C(O)C(OC(N)=O)C3O)c3cnc[nH]3)C(C)O)n2)n1 (stereo not given)
survivor count (dose: 60.0 mg/kg/injection, vehicle: saline): 3 of 5 on day 36 | survivor count (dose: 120.0 mg/kg/injection, vehicle: saline): 0 of 5 on day 36

COC(OC(CO)C(O)S(=O)(=O)O)C(O)S(=O)(=O)O (stereo not given)
survivor count (dose: 100.0 mg/kg/injection, vehicle: saline): 2 of 4 on day 41 | survivor count (dose: 400.0 mg/kg/injection, vehicle: saline): 2 of 5 on day 41 | survivor count (dose: 800.0 mg/kg/injection, vehicle: saline): 0 of 5 on day 41 | survivor count (dose: 1600.0 mg/kg/injection, vehicle: saline): 0 of 5 on day 41 | survivor count (dose: 1600.0 mg/kg/injection, vehicle: suspension in saline): 0 of 5 on day 36

COc1ccc(C(N)=O)cc1N=NN(C)C
T/C (dose: 37.5 mg/kg/injection, vehicle: Klucel (hydroxypropylcellulose) (HPC), evaluated on day 33): 29 % of control | T/C (dose: 37.5 mg/kg/injection, vehicle: Klucel (hydroxypropylcellulose) (HPC), evaluated on day 34): 53 % of control | T/C (dose: 37.5 mg/kg/injection, vehicle: Klucel (hydroxypropylcellulose) (HPC), evaluated on day 36): 34 % of control | T/C (dose: 37.5 mg/kg/injection, vehicle: Klucel (hydroxypropylcellulose) (HPC), evaluated on day 37): 68 % of control | T/C (dose: 75.0 mg/kg/injection, vehicle: Klucel (hydroxypropylcellulose) (HPC), evaluated on day 33): 18 % of control | T/C (dose: 75.0 mg/kg/injection, vehicle: Klucel (hydroxypropylcellulose) (HPC), evaluated on day 34): 22 % of control | T/C (dose: 75.0 mg/kg/injection, vehicle: Klucel (hydroxypropylcellulose) (HPC), evaluated on day 36): 52 % of control | T/C (dose: 75.0 mg/kg/injection, vehicle: Klucel (hydroxypropylcellulose) (HPC), evaluated on day 37): 11 % of control | T/C (dose: 150.0 mg/kg/injection, vehicle: Klucel (hydroxypropylcellulose) (HPC), evaluated on day 34): 12 % of control | T/C (dose: 150.0 mg/kg/injection, vehicle: Klucel (hydroxypropylcellulose) (HPC), evaluated on day 36): 10 % of control | survivor count (dose: 150.0 mg/kg/injection, vehicle: Klucel (hydroxypropylcellulose) (HPC)): 4 of 7 on day 34 and 3 of 5 on day 37 | survivor count (dose: 300.0 mg/kg/injection, vehicle: Klucel (hydroxypropylcellulose) (HPC)): 0 of 5 on day 36, 0 of 5 on day 37, 0 of 7 on day 34, 1 of 5 on day 36

CC1CCC(NC(=O)N(CCCl)N=O)CC1 (stereo not given)
survivor count [4]: 1 of 5 on day 41 | survivor count [5]: 0 of 5 on day 41

C[n+]1c(-c2cccc3ccccc23)c2cc(N)ccc2c2ccccc21
survivor count (dose: 3.0 mg/kg/injection, vehicle: saline): 3 of 5 on day 34

N/C(=N\O)c1cn(C2OC(CO)C(O)C2O)c2ncnc(N)c12 (stereo not given)
survivor count [5]: 0 of 5 on day 36

CS(=O)(=O)OCCN(CCOS(C)(=O)=O)c1ccc(C=Nc2ccc(-c3csc(COc4ccccc4)n3)cc2)cc1
survivor count [1]: 1 of 5 on day 36 | survivor count [6]: 0 of 5 on day 36

CN(C)N=Nc1cn[nH]c1C(N)=O
survivor count (dose: 50.0 mg/kg/injection, vehicle: Klucel (hydroxypropylcellulose) (HPC)): 3 of 5 on day 36 | survivor count [1]: 1 of 5 on day 34 and 2 of 5 on day 35 | survivor count [6]: 0 of 5 on day 34

O=C1N(Cl)C(=O)C(c2ccc(Cl)cc2)(c2ccc(Cl)cc2)N1Cl
survivor count (dose: 400.0 mg/kg/injection, vehicle: saline with Tween-80): 3 of 5 on day 36 | survivor count [7]: 0 of 5 on day 36

NC(=S)N/N=C/c1ccc(O)cn1
survivor count [7]: 3 of 5 on day 40 | survivor count (dose: 1600.0 mg/kg/injection, vehicle: saline with Tween-80): 0 of 5 on day 40

O=C[C@@H](CO)O[C@H](C=O)n1cnc2c(=O)[nH]cnc21
survivor count (dose: 800.0 mg/kg/injection, vehicle: suspension in saline): 0 of 5 on day 34

Cc1c(N)nc([C@H](CC(N)=O)NC[C@H](N)C(N)=O)nc1C(=O)N[C@H](C(=O)N[C@H](C)[C@@H](O)[C@H](C)C(=O)N[C@H](C(=O)NCCc1nc(-c2nc(C(=O)NCCC[S+](C)C)cs2)cs1)[C@@H](C)O)C(OC1OC(CO)C(O)C(O)C1OC1OC(CO)C(O)C(OC(N)=O)C1O)c1cnc[nH]1 (stereo not given in full)
survivor count [2]: 1 of 5 on day 35 | survivor count [3]: 0 of 5 on day 35, 0 of 5 on day 36, 3 of 5 on day 36
